This note sets out measurements from patent US5968823A, “Glycine transporter-transfected avian cells and uses thereof” (Allelix Neuroscience Inc., priority 1998, dated 1999).

For this experiment, the target named is T1, GlyT-2 (Rattus norvegicus, UniProt P58295).
T1 construct: expressed in transfected cells; host or cells: QT-6 quail fibroblast cells (ATCC CRL-1708), transient transfection
T1 sequence (P58295 1-799): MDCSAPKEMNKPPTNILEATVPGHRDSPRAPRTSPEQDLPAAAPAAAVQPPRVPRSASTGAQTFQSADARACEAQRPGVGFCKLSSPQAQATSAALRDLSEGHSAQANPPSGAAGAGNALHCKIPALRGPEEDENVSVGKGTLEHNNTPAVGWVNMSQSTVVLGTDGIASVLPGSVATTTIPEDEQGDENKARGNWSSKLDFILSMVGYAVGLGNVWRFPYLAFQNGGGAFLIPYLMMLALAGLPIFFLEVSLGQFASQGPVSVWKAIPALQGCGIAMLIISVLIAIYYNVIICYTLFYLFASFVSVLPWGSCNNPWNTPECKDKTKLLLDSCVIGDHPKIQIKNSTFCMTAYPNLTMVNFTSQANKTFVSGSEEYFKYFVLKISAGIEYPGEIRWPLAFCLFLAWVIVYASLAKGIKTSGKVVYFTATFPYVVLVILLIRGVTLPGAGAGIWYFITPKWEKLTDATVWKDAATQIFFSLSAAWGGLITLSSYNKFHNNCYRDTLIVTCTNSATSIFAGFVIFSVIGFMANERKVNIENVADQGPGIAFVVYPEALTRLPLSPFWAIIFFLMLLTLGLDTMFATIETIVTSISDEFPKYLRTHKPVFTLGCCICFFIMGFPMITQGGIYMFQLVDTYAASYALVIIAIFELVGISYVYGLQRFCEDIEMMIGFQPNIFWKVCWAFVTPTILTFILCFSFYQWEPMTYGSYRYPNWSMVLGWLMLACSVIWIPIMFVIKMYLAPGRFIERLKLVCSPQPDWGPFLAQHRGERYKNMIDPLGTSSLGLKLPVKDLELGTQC
Description: Inhibition of [3H]glycine uptake in QT-6 cells transiently transfected with GlyT-2. The format is cell-based. The conditions noted are these: QT-6 cells transfected with GlyT-2; 50 nM [3H]glycine, 20 min at 37° C; read-out: Effect Via GlyT-2, pIC50 (converted). The protocol:
This example sets forth methods and materials used for growing and transfecting QT-6 cells.
The following four day procedure for the tranfections was used:
On day 1, QT-6 cells were plated at a density of 1×10^6 cells in 10 ml of complete QT-6 medium in 100 mm dishes.
On day 2, the medium was aspirated and the cells were washed with 10 ml of PBS followed by 10 ml of TBS. The TBS was aspirated, then 1 ml of the DEAE/DNA mix was added to the plate. The plate was swirled in the hood every 5 minutes. After 30 minutes, 8 ml of 80 μM chloroquine in QT-6 medium was added and the culture was incubated for 2.5 hours at 37° C. and 5% CO2. The medium was then aspirated and the cells were washed two times with complete QT-6 medium, then […] complete QT-6 medium was added and the cells were returned to the incubator.
On day 3, the cells were removed with trypsin/EDTA as described above, and plated into the wells of 96-well assay plates at approximately 2×10^5 cells/well.
On day 4, glycine transport was assayed as described in Example 2. […]
Transient GlyT-transfected cells or control ("mock") cells grown in accordance with Example 1 were washed three times with HEPES buffered saline (HBS). […] The cells were harvested, scintillant was added to the cells, the cells were shaken for 30 minutes, and the radioactivity in the cells was counted using a scintillation counter. […]

On to `CSc1ccc2c(c1)N(CCC1CCCCN1C)c1ccccc1S2` (stereo not shown) [ZD], for which the IC50 was 19.5 µM.
